From patent publication US5068358A, “Process for extracting N-methyl-2-pyrrolidone” (Hoechst Aktiengesellschaft, priority 1988, dated 1991)
Read-outs that look alike come from different tables or passages of the source.

## CC(C)(C)CC(C)(C)c1ccc(O)cc1 [p-(1,1,3,3-tetramethylbutyl)-phenol]
Example 9, feed about 35% NMP, X:S=2:1, 90° C., analogously to Example 7
  NMP in aqueous raffinate: 0.04 % by weight

## nonylphenol
Example 2, feed 33.4% NMP, room temperature, pulsed counter-current, four stages, 1.43 parts nonylphenol per part bath
  extraction yield: more than 99.97%
Example 3, feed 33.4% NMP, X:S=4:1, 70° C., 4-stage mixer/settler
  extraction yield: 99.4%
Example 5, feed about 35% NMP, X:S=2:1, 60° C., about 5 to 6 theoretical stages, Karr 2.5 m
  extraction yield: about 99.99%
